IC50 data for one compound are collected here from patent US20220031657A1 (NOVARTIS AG, priority 2017, published 2022).

Structures are written as SMILES.

In this assay the test system is MCF-7 parental (WT) cells. The assay is described as follows: cells. To be noted: Homo sapiens, MCF7, 168 h, read-out: MCF-7 proliferation Ave IC50, ESR1 WT.

For `CC/C(=C(\c1ccccc1)c1ccc(OCCN(C)C)cc1)c1ccccc1` [Tamoxifen], the IC50 turned out to be 4.5 nM.
